Our source for the binding signal values is PMC7819943, “Rice protein-binding microarrays: a tool to detect cis-acting elements near promoter regions in rice”.

The other results are listed elsewhere or left out.

This assay has as its target T1, OsSMF1 (Oryza sativa, UniProt Q6ZLB0 1-436).
T1 sequence: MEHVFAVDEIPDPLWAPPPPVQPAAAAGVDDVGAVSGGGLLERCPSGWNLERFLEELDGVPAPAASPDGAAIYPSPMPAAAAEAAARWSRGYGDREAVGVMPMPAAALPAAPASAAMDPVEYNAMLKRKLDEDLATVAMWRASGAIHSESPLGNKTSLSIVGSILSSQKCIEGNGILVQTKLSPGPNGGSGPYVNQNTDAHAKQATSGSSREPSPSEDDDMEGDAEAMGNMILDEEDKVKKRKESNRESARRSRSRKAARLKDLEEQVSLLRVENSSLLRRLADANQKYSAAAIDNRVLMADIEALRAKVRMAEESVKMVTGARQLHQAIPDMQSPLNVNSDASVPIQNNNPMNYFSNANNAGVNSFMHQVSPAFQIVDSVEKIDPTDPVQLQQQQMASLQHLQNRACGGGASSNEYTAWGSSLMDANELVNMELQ
The assay can be described thus: protein-binding microarray (RPBM); PBS, 2% BSA, 51.3 ng/ul salmon testes DNA, 50 uM zinc acetate, 200 nM TF, 25 C, 1 h; high values mean tight binding. The conditions noted are these: protein: recombinant; tags: N-terminal polyhistidine and DsRed monomer fusion (pET32a); chain copies: 2; label: CyDye5-dUTP incorporated in the synthesized complementary strand; 3' TTTTT single-stranded linker to array surface; dsDNA, one strand shown. A digest of the protocol:
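Transcription factors were made in E. coli BL21-CodonPlus as N-terminal fusions to a polyhistidine tag and DsRed, then purified on Ni–NTA. After primer extension with Cy5-dUTP and blocking with 2% BSA, a custom Agilent array was exposed for 1 h at 25 °C to 200 nM protein in PBS, 2% BSA, salmon testes DNA and 50 µM zinc acetate. Washed arrays were scanned on an Axon 4000B, and the binding signal is per-feature fluorescence intensity in arbitrary units.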
As for “GTACAAGCTATACACGTGGTTTCATGTCTTGGCGCTTTATCGGAGTCACCTAGTGCAG”, the binding signal was 6570 fluorescence intensity (a.u.).
Next, “TGCGCGCTGCACGGCCGCACCCAATAATCTTCCTCTCCGTCGGAGTCACCTAGTGCAG”: 23300 fluorescence intensity (a.u.).
Next, “AACGATGAGGTGTACATTTTCTAGATTAGTCCTCCCTATCCGGAGTCACCTAGTGCAG”: 5950 fluorescence intensity (a.u.).
For the sequence “ATATCCGATGTGACACGGCAAAAGTTTTCACCCTAGATCTCGGAGTCACCTAGTGCAG”, the binding signal is 7800 fluorescence intensity (a.u.).
As for “CTTCGAGTAGCGCACACGTGTGCGGTGCGCGGCACTACACCGGAGTCACCTAGTGCAG”, the binding signal was 4830 fluorescence intensity (a.u.).
As for “GAGGAGAGGGAGAGAGGCTGCGAGTGGAGGCCACGTACGGCGGAGTCACCTAGTGCAG”, the binding signal is 6620 fluorescence intensity (a.u.).
In the case of “CGTGTTCGATTCCGCTGCTATCCACGTCGCTACGCGCCACCGGAGTCACCTAGTGCAG”, the binding signal was 7020 fluorescence intensity (a.u.).
For “AATTGCTTTGCTGGCAGGGTGATGTGCCAATGGTTTCTTTCGGAGTCACCTAGTGCAG”, the binding signal was 5930 fluorescence intensity (a.u.).
Consider “ACTAAAATGATGACAACAAATCTACGCAGCTGCCTGCTTTCGGAGTCACCTAGTGCAG”, for which the binding signal was 4560 fluorescence intensity (a.u.).
Consider “CTGCCGCCCTAGTGGAGAGCGGCAAGCTGACGTGGCAAACCGGAGTCACCTAGTGCAG”, for which the binding signal was 20400 fluorescence intensity (a.u.).
Regarding “TACCTAGGACGACACGATTACGCGTAATAATATTTGGAGACGGAGTCACCTAGTGCAG”, the binding signal is 3380 fluorescence intensity (a.u.).
For “GGGGATCCGATAGATGAGGTTTTCATATCGCTGATCACTCCGGAGTCACCTAGTGCAG”, the binding signal was 3190 fluorescence intensity (a.u.).
On to “CCAGGTCAGATGATGACCACTCTCCTCGGCATTTCCGATTCGGAGTCACCTAGTGCAG”, for which the binding signal was 3840 fluorescence intensity (a.u.).
As for “AGCGTCCACGTCTCCCCGACGATTGCTTTATAAAACCACCCGGAGTCACCTAGTGCAG”, the binding signal is 4670 fluorescence intensity (a.u.).
In the case of “TGCTGCTTCGTCCCGGCCGTCGGCTACGCGCTCGGGTACACGGAGTCACCTAGTGCAG”, the binding signal was 3250 fluorescence intensity (a.u.).
For the sequence “CTATTTGTGTCTTGTGTACTTCAACGTCTTCCTCTTATGACGGAGTCACCTAGTGCAG”, the binding signal is 3680 fluorescence intensity (a.u.).
On to “TTACGTATGCATGACTAATTGACATATCCATTATATTGGTCGGAGTCACCTAGTGCAG”, for which the binding signal is 8440 fluorescence intensity (a.u.).
In the case of “AGCTCCGTGGAGATAAGCTTGCTCTCATACCATTTGCTGACGGAGTCACCTAGTGCAG”, the binding signal was 3590 fluorescence intensity (a.u.).
Regarding “AGCGGGCCCACCTCCACCTCAGCCCAGTCGCCCGTTGCCGCGGAGTCACCTAGTGCAG”, the binding signal was 3380 fluorescence intensity (a.u.).
Turning to “AATCCAACCCCAACCAATCATTCGCTGTGCATGTATGCAGCGGAGTCACCTAGTGCAG”, the binding signal was 19500 fluorescence intensity (a.u.).
“GTCTGTGTATCAAGATGAAATATAACTATCAAAAGTAGATCGGAGTCACCTAGTGCAG”: the binding signal is 20400 fluorescence intensity (a.u.).
Take “CCTTATCCTGTTGCTTGTCTGCTATCGTTGCCTCAGCAGGCGGAGTCACCTAGTGCAG”: the binding signal was 3470 fluorescence intensity (a.u.).
For “CATATCCTCAAGTAGAATTCAAATCCAGTCACATTGCCACCGGAGTCACCTAGTGCAG”, the binding signal is 4130 fluorescence intensity (a.u.).
Under “ATGTCGTAGCTTTTAATTATATACTACTATAAATTTGATTCGGAGTCACCTAGTGCAG” stands 43700 fluorescence intensity (a.u.).
“GAGAGAGAGGGAGGGAGAGGCTGGCTGGGGAGACGGAACACGGAGTCACCTAGTGCAG”: the binding signal is 3460 fluorescence intensity (a.u.).
For “AGAAATCTAGGGTTTTCATCAGCTTTCTCCCTGCATAAAACGGAGTCACCTAGTGCAG”, the binding signal was 13600 fluorescence intensity (a.u.).
Take “CAATACGTTGTTTCTATTCATTGATATCTTGACATCTTGTCGGAGTCACCTAGTGCAG”: the binding signal is 3220 fluorescence intensity (a.u.).
Turning to “CGCTGACTCAGCCGCCATGTCAGCCAAAACTGGGGTCAAACGGAGTCACCTAGTGCAG”, the binding signal was 12700 fluorescence intensity (a.u.).
For “GCATGCATCATCTTATTGTCTAATTTTGAGAGAATTCACGCGGAGTCACCTAGTGCAG”, the binding signal was 6080 fluorescence intensity (a.u.).
Consider “ATATATATACGTGTTCTTATCTTAACGGTACACGTTACAGCGGAGTCACCTAGTGCAG”, for which the binding signal is 4540 fluorescence intensity (a.u.).
“AGCGCCGACCGGCTCTGGACGCTGCGCGACGCGTGGCCACCGGAGTCACCTAGTGCAG”: the binding signal is 4190 fluorescence intensity (a.u.).
As to “GACGGTTAGAGGCCACCGTGTCACCGTGCTTCTCCAATATCGGAGTCACCTAGTGCAG”, the binding signal was 3140 fluorescence intensity (a.u.).
Consider “CCCCGCGCCTTGATATTTGCAACTGCAAATTTGTCTATATCGGAGTCACCTAGTGCAG”, for which the binding signal was 3650 fluorescence intensity (a.u.).
Next, “TGCGCGCAGAGTTTGCAAGGCCAGGTCATCCATGCTCGCCCGGAGTCACCTAGTGCAG”: 5100 fluorescence intensity (a.u.).
Under “TGCGCATCGCTTCTGAGCTCGATCTACGTCGTCCGGCCGGCGGAGTCACCTAGTGCAG” stands 3160 fluorescence intensity (a.u.); under “CACATATACAGCAGACAAAGCCCAAGAGCATCATCGATTCCGGAGTCACCTAGTGCAG”, 8030 fluorescence intensity (a.u.); under “GCAGCCCGGCACATGACAGGGATCGCGTCCACCGACACATCGGAGTCACCTAGTGCAG”, 4370 fluorescence intensity (a.u.).
With “ATGTGGAAGGGGTAGAGTTGTAATTTTGCATATGTAACAACGGAGTCACCTAGTGCAG”, the binding signal is 3190 fluorescence intensity (a.u.).
With “CCTAATTGACAAATGATTTCACCACGTCCCTTTCCATTTTCGGAGTCACCTAGTGCAG”, the binding signal was 3910 fluorescence intensity (a.u.).
Regarding “CTCCACTACTTGCATTGTTTATCTGCGTCATCGTTTCCTTCGGAGTCACCTAGTGCAG”, the binding signal is 8830 fluorescence intensity (a.u.).
On to “AATTAATAAGTAGATGACGTGGATAAAATTAGAATTGATGCGGAGTCACCTAGTGCAG”, for which the binding signal was 13500 fluorescence intensity (a.u.).
For the sequence “CGAGCTAAGCCACTCCACCGCCGATTGATCGCGTCACGGCCGGAGTCACCTAGTGCAG”, the binding signal is 4540 fluorescence intensity (a.u.).
